Data on 20 compounds can be found in patent US11739083B2, “Disposable sensor chip with reagent including 2-substituted benzothiazolyl-3-substituted phenyl-5-substituted sulfonated phenyl-2H-tetrazolium salt” (TERUMO KABUSHIKI KAISHA, priority 2016, dated 2023).

Some compounds share one wording; it may come from a single statement.

The data set can be described thus: Evaluation of chelation rate (visual colour change after adding nickel ion). It counts as physicochemical. The settings on record: for Chelation rate: time to visually confirm colour development after addition of aqueous nickel solution.

Regarding `COc1ccc2nc(-n3nc(-c4ccc(S(=O)(=O)O)cc4S(=O)(=O)[O-])n[n+]3-c3ccc(OC)c(C(=O)O)c3)sc2c1` [Example 12], the Chelation rate result is given as “◯ (the time was one minute or less)”. Consider `COc1ccc2nc(-n3nc(-c4ccc(S(=O)(=O)O)cc4S(=O)(=O)[O-])n[n+]3-c3ccc(C(=O)O)cc3OC)sc2c1` [Example 10], for which the Chelation rate entry is listed as “◯ (the time was one minute or less)”. Consider `COc1ccc2nc(-n3nc(-c4ccc(O)cc4S(=O)(=O)[O-])n[n+]3-c3cc(S(=O)(=O)[O-])ccc3OC)sc2c1.[Na+]` [Example 5], for which the Chelation rate result is given as “◯ (the time was one minute or less)”. For the compound “2-benzothiazolyl-3-(4-carboxy-2-methoxyphenyl)-5-[4-(2-sulfoethylcarbamoyl)phenyl]-2H-tetrazolium [Comparative Example 5, reference compound]”, the Chelation rate entry is listed as “X (the time was longer than one minute)”. In addition, the “chelate formation between formazan and transition metal ion” value (addition of aqueous nickel ion solution, colour tone observed) is given as “no chelate was formed”.

In the case of `COc1ccc(S(=O)(=O)O)cc1-[n+]1nc(-c2ccc(S(=O)(=O)O)cc2S(=O)(=O)[O-])nn1-c1nc2cc3c(cc2s1)OCO3` [Example 13], the Chelation rate result is given as “◯ (the time was one minute or less)”.

Consider `COc1ccc2nc(-n3nc(-c4cc(S(=O)(=O)[O-])cc(S(=O)(=O)O)c4)n[n+]3-c3cc(S(=O)(=O)O)ccc3OC)sc2c1` [Example 8], for which the Chelation rate result was “◯ (the time was one minute or less)”. Regarding `COc1ccc2nc(-n3nc(-c4ccc(S(=O)(=O)O)cc4S(=O)(=O)[O-])n[n+]3-c3cc(S(=O)(=O)O)ccc3OC)sc2c1` [Example 2], the Chelation rate entry is reported as “◯ (the time was one minute or less)”. `COc1ccc2nc(-n3nc(-c4ccc(S(=O)(=O)O)cc4S(=O)(=O)[O-])n[n+]3-c3ccc(OC)c(S(=O)(=O)O)c3)sc2c1` [Example 1]: the Chelation rate entry is reported as “◯ (the time was one minute or less)”. Consider `CCOc1ccc2nc(-n3nc(-c4ccc(S(=O)(=O)O)cc4S(=O)(=O)O)n[n+]3-c3ccc(OC)c(S(=O)(=O)[O-])c3)sc2c1` [Example 20], for which the Chelation rate result was “◯ (the time was one minute or less)”. For the compound `COc1ccc(-[n+]2nc(-c3ccc(S(=O)(=O)O)cc3S(=O)(=O)O)nn2-c2nc3cc4c(cc3s2)OCO4)cc1S(=O)(=O)[O-]` [Example 17], the Chelation rate result is recorded as “◯ (the time was one minute or less)”.

Regarding `COc1ccc2nc(-n3nc(-c4ccccc4S(=O)(=O)[O-])n[n+]3-c3ccc(S(=O)(=O)[O-])cc3)sc2c1.[Na+]` [Example 7], the Chelation rate result is given as “◯ (the time was one minute or less)”. Regarding `COc1ccc2nc(-n3nc(-c4ccc(S(=O)(=O)[O-])cc4S(=O)(=O)[O-])n[n+]3-c3ccc([N+](=O)[O-])cc3OC)sc2c1.[Na+]` [Example 4], the Chelation rate entry was “◯ (the time was one minute or less)”. Take `COc1ccc(S(=O)(=O)O)cc1-[n+]1nc(-c2ccc(S(=O)(=O)O)cc2S(=O)(=O)[O-])nn1-c1nc2cc3c(cc2s1)OCCO3` [Example 14]: the Chelation rate entry was “◯ (the time was one minute or less)”. In the case of `COc1ccc2nc(-n3nc(-c4ccc(O)c(S(=O)(=O)[O-])c4)n[n+]3-c3cc(S(=O)(=O)[O-])ccc3OC)sc2c1.[Na+]` [Example 6], the Chelation rate result is “◯ (the time was one minute or less)”. For `COc1ccc2nc(-n3nc(-c4cc(S(=O)(=O)O)cc(S(=O)(=O)O)c4)n[n+]3-c3ccc(OC)c(S(=O)(=O)[O-])c3)sc2c1` [Example 9], the Chelation rate entry was “◯ (the time was one minute or less)”. In the case of `COc1ccc2nc(-n3nc(-c4ccc(S(=O)(=O)O)cc4S(=O)(=O)O)n[n+]3-c3cc(S(=O)(=O)[O-])c([N+](=O)[O-])cc3OC)sc2c1` [Example 3], the Chelation rate entry is recorded as “◯ (the time was one minute or less)”. As to `COc1ccc2nc(-n3nc(-c4cc(S(=O)(=O)[O-])cc(S(=O)(=O)O)c4)n[n+]3-c3cc(C(=O)O)ccc3OC)sc2c1` [Example 11], the Chelation rate result was “◯ (the time was one minute or less)”. On to `COc1ccccc1-[n+]1nc(-c2ccc(S(=O)(=O)O)cc2S(=O)(=O)[O-])nn1-c1nc2ccccc2s1` [compound 4, reference compound], for which the Chelation rate result is “◯ (the time was one minute or less)”.

Take `COc1ccc(S(=O)(=O)O)cc1-[n+]1nc(-c2ccc(S(=O)(=O)O)cc2S(=O)(=O)[O-])nn1-c1nc2ccccc2s1` [Comparative Example 1, reference compound]: the Chelation rate result is “◯ (the time was one minute or less)”.

Take `COc1ccc(-[n+]2nc(-c3ccc(S(=O)(=O)O)cc3S(=O)(=O)O)nn2-c2nc3cc4c(cc3s2)OCCO4)cc1S(=O)(=O)[O-]` [Example 19]: the Chelation rate result is “◯ (the time was one minute or less)”.
